Out of some 31,000 sequences screened, about 1,400 (4.5%) were called active.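 Rule for the calls: active = median seed-adjusted z-score above 1 or below -1; inactive = the rest.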 The list shows a part of the results.
Assay: Novel Modifiers of Survival Motor Neuron (SMN) Protein: Gene Identification via Genome-wide siRNA Screen;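 note: luminescence tracks full-length SMN protein made from the SMN2 reporter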
Details: HEK293T SMN2-luciferase reporter, siRNA knockdown, 72 h; actives lie on both sides
Procedure, shortened: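 Genome-wide siRNA screen (10418 genes, 3 siRNAs each, 1 pmol per well) by reverse transfection in HEK293T cells stably carrying an SMN2-luciferase reporter; luminescence after 72 hours, normalized to negative-control siRNA, log10-transformed, MAD-scored.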
For GGAACAAGAGUGCAAGAUUTT against ACOXL, the median seed-adjusted z-score was inactive: 0.53. For GAAUACCGGGUCUUAAUUATT against MOV10, the median seed-adjusted z-score was inactive: 0.0759. With GGAAAUUGACCUACUCUUUTT against PCDHGA5 the median seed-adjusted z-score was inactive: 0.163. For GCUUGGAUGUAAAACUGAATT against IL24, the median seed-adjusted z-score was inactive: -0.125. With CCAGCGGAAUCGAAUGAGATT against EIF3D the median seed-adjusted z-score was inactive: 0.104. With CUAUGGGUAUGACUACUUUTT against BPHL the median seed-adjusted z-score was inactive: -0.161. For UGCUCAUGCUGGAUCAUCATT against SMARCD2, the median seed-adjusted z-score was inactive: 0.162. With GAAAAGUUGGAGAAGAUGATT against GINS2 the median seed-adjusted z-score was inactive: 0.553. In the case of GGUGUAUGCUGAGGUGAAATT against EIF2C1, the median seed-adjusted z-score is reported as inactive: 0.215. For GGAUGGGAGUGGAGAGUUATT against EGLN2, the median seed-adjusted z-score was inactive: -0.349. In the case of GUGUCUCUGAUGAACCACATT against SYT15, the median seed-adjusted z-score is reported as inactive: 0.0164. In the case of GGAGUUGCCUGACACUGAATT against PDE4C, the median seed-adjusted z-score is reported as inactive: 0.565. In the case of CUAAUAGCCUUGGAGAUCATT against RAET1E, the median seed-adjusted z-score is reported as inactive: -0.616. With CGUGGGCUUUGGCGACUAUTT against KCNK4 the median seed-adjusted z-score was inactive: -0.446. In the case of AGACAUCCUAUAUUCCUUUTT against CDC14B, the median seed-adjusted z-score is reported as inactive: 0.325. With GCCUGAAAAUGUUGACCGATT against MEX3C the median seed-adjusted z-score was inactive: 0.0977. In the case of GGUCAUGAUCAGUUCCAGATT against FMO3, the median seed-adjusted z-score is reported as inactive: -0.0769. With GAGCCCAUGCGAAUGCGAATT against MATN4 the median seed-adjusted z-score was inactive: -0.262. For GCCUCACAGCUAUCGUGAATT against ANXA1, the median seed-adjusted z-score was inactive: -0.114. With GCACAACUGUGGUGGGAUATT against AGPAT6 the median seed-adjusted z-score was inactive: 0. With GGAUUCCAAUUAUGUCGUUTT against SI the median seed-adjusted z-score was inactive: 0. For GGAACAUCCUGCACCUGUATT against PC, the median seed-adjusted z-score was inactive: 0.2. For CAUUGACUCUUGCGACAAUTT against RAB11FIP4, the median seed-adjusted z-score was inactive: 0.249. With CUGUUGGACAAAUAUCUUATT against YWHAB the median seed-adjusted z-score was inactive: 0.579. For GAGUCAACAUCGUCUUUAATT against DDX39, the median seed-adjusted z-score was inactive: -0.342. In the case of GGAACAAUGACAGCAAACATT against FOXP4, the median seed-adjusted z-score is reported as inactive: 0.588. In the case of GUGUACUUCAUAUUCGAAATT against PTBP2, the median seed-adjusted z-score is reported as inactive: 0.138. In the case of CCCUGGGCAUCAGACCUUATT against TNFRSF8, the median seed-adjusted z-score is reported as inactive: 0.739. With GGAGGAUCGUUUAGACAGATT against TCF12 the median seed-adjusted z-score was inactive: -0.16. In the case of GGGACUACUUGGAAUGAUATT against EXOSC6, the median seed-adjusted z-score is reported as inactive: 0.354. With GCUGGAAACUAGAAAAGCATT against SERGEF the median seed-adjusted z-score was inactive: -0.308. In the case of GGUUAUCCUUUAAUCAACATT against ZNF596, the median seed-adjusted z-score is reported as inactive: 0.486. With CGCUGAAACACGUCCAUUUTT against CHAD the median seed-adjusted z-score was inactive: 0. For GGCCCAAGAUAACACUGAATT against CASQ1, the median seed-adjusted z-score was inactive: -0.0307. With GGUCGAAGCUGUGCAAGGATT against TPPP the median seed-adjusted z-score was inactive: -0.16. In the case of GGAUUUACUGUGAAUGAAATT against PAAF1, the median seed-adjusted z-score is reported as inactive: -0.422. In the case of GACCAAAGCCGAACAGUUUTT against OGDH, the median seed-adjusted z-score is reported as inactive: 0.253. For GCUUCGAGGAGGGCAAGAATT against PRSS27, the median seed-adjusted z-score was active: 1.03. For GGGUGAUUGCUACACUUUUTT against NEK8, the median seed-adjusted z-score was inactive: -0.099. For GGACUACUGGUAUGACAUUTT against LMTK3, the median seed-adjusted z-score was inactive: 0. For GUGUAGCACUGACCAAGAATT against RCAN3, the median seed-adjusted z-score was inactive: 0.544. With AGACGACGGCGAUGAGGAATT against RALY the median seed-adjusted z-score was inactive: 0. For GAAGCUGAUUGAGCGCAAATT against GCN5L2, the median seed-adjusted z-score was inactive: 0.013. For GCAGUGUUCUUUGCGCAGATT against PAQR3, the median seed-adjusted z-score was inactive: -0.0384. For CACUGUUCACUGUGACUAUTT against TAF1, the median seed-adjusted z-score was inactive: -0.582. In the case of GGGAGAUCAUCAACACCUATT against XAB2, the median seed-adjusted z-score is reported as inactive: 0.0628. For ACAGCACACCGGACUCUAATT against TMLHE, the median seed-adjusted z-score was inactive: -0.241. With CAUGAACGAUGGGCGAGUATT against UXS1 the median seed-adjusted z-score was inactive: 0.25. In the case of CGAUCAAGAUUCUAGACGATT against PCDH17, the median seed-adjusted z-score is reported as inactive: 0.451. For GGAUUGGAACUGAGACCGATT against SLC25A32, the median seed-adjusted z-score was inactive: -0.299. With GGCUAAUCGUGAUCUAGUUTT against ACAD10 the median seed-adjusted z-score was inactive: -0.269. In the case of AGACAGUAUAUAUAAUGCATT against MMP26, the median seed-adjusted z-score is reported as inactive: 0.0881. In the case of GCCUGGAUGCUAAUCAAGATT against S100A12, the median seed-adjusted z-score is reported as inactive: 0.346. With GAAUCUGUCCGAAGGAUAATT against DNAJC11 the median seed-adjusted z-score was inactive: 0.148.

Reference: PubChem BioAssay AID1347426 (Functional Genomics Laboratory (NCATS/FGL), 2020)
